Results as given in patent US20060165684A1 (published 2006).
Results are given in words; binding and its absence hold for the method and conditions named. Some results given as binding are weak or reduced against the parent protein; the word gives no strength.

T1: peptide 6 (TIRC7 derived peptide)
T1 sequence (peptide): DLPDASVNGWSSDE


Target: T1, peptide 6 (TIRC7 derived peptide)
Assay: ELISA

Binder	binding
chimeric Neliximab (antibody, V domains shown, Murine VH and VL joined to human gamma 1 (pConGamma1f vector) and human kappa (pConKappa vector) constant regions, made in NSO or CHO cells; also called chimeric antibody of clone 17-1; chimerized #17) VH: EVQLQQSGPELVKPGASVKMSCKASGYTFTTYVMHWVKQKPGQGLEWIGYINPYNDGTNYNEKFKGKATLTSDKSSSTAYMELSTLTSEDSAVYYCAEFITKTVGGSNWYLDVWGAGTTVTVSS VL: QIVLTQSPAIMSASPGEKVTMTCSASSSISYIHWFQQKPGTSPKRWIYDTSKLPSGVPARFSGSGSGTSYSLTISSMEAEDAATYYCHQRSSYTWTFGGGTKLEIKR	binds
murine Metiliximab (antibody, V domains shown, also called #9; Clone 9) VH: EVQLQQSGPELVKPGASVKMSCKASGYTFTSYVIHWVKQKPGQGLEWIGYINPYNYDTKYNEKFKGEATLTSDKSSNTAYMELSSLTSEDSAVYYCAGFFTRAVGGSYWYLDVWGAGTTVTVSS VL: QIVLTQSPAIMSASPGEKVTMTCSASSSISYIHWFQQKPGTSPKRWIYDTSKLVSGVPARFSGSGSGTSYSLTISNMEAADAATYYCHQRSASTWTFGGGTKLEIKR	binds
